Measured values published in patent publication US9334259B2, “Aryloxyacetamide compound and pesticide” (Nippon Soda Co., Ltd., priority 2012, dated 2016).
Some entries share one result that the patent states for a list of compounds.

Legend:
[1] = tested on: adult female Tetranychus kanzawai from Okayama Prefecture; experiment: Efficacy test against Tetranychus kanzawai (spray on kidney bean plant); format: in vivo; settings: 125 ppm emulsion sprayed; for insect mortality rate after 3 days: 3 days after spraying; for insect mortality rate after 14 days: 14 days after spraying
[2] = tested on: organic phosphorous-resistant adult female Tetranychus urticae; experiment: Efficacy test against Tetranychus urticae (spray on kidney bean plant); format: in vivo; settings: 125 ppm emulsion sprayed, 25° C., humidity 65%

Structure (SMILES)	insect mortality rate after 3 days [1] [%]	insect mortality rate after 14 days [1] [%]	insect mortality rate after 3 days ([2]; 3 days after spraying) [%]	insect mortality rate after 10 days ([2]; after 10 days (so in the source)) [%]
CSC(Oc1cc(Cl)cc(Cl)c1)C(=O)NC(C)(C)c1ccccn1 (stereo not shown) [1-9]	≥ 90	≥ 90		
CSC(Oc1cc(Cl)cc(Cl)c1)C(=O)NC(C)(C)c1cc(-c2ccccc2)ccn1 (stereo not shown) [1-10]	≥ 90	≥ 90		
COC(Oc1ccc2ncsc2c1)C(=O)NC(C)(C)c1ccccn1 (stereo not shown) [2-4]			≥ 90	≥ 90
CCC(Oc1cccc(C(F)(F)F)n1)C(=O)NC(C)(C)c1ccccn1 (stereo not shown) [2-5]	≥ 90	≥ 90		
CCC(Oc1cc(Br)nc(C(F)(F)F)c1)C(=O)NC(C)(C)c1ncccn1 (stereo not shown) [2-8]	≥ 90	≥ 90		
CCC(Oc1cc(C(F)(F)F)cc(Cl)n1)C(=O)NC(C)(C)c1ccccn1 (stereo not shown) [2-13]	≥ 90	≥ 90		
CCC(Oc1cc(C(F)(F)F)cc(Cl)n1)C(=O)NC(C)(C)c1cc(SC)ccn1 (stereo not shown) [2-29]	≥ 90	≥ 90		
CCC(Oc1cc(C(F)(F)F)cc(Cl)n1)C(=O)NC(C)(C)c1cc(S(C)(=O)=O)ccn1 (stereo not shown) [2-30]	≥ 90	≥ 90		
